According to patent publication US20190280220A1, “METAL COMPLEXES” (Merck Patent GmbH, priority 2016, published 2019):

Test: Solution-processed OLED device, type 1 (emission layer M1:M2:IrL 40%:35%:25%)
Conditions: type 1 device, single emitter

Compound | CIE x | CIE y | EQE (%) 1000 cd/m^2 | LT50 (h) 1000 cd/m^2 [h] | Voltage (V) 1000 cd/m^2
c1ccc(-c2c(-c3ccccc3)c(-c3ccccc3)c(-c3ccc(-c4cc(-c5ccccn5)[c]5cc4-c4ccccc4-c4cc6cc(c4)-c4ccccc4-c4ccc(-c7ccccn7)[c](c4)[Ir]5[c]4cc(ccc4-c4ccccn4)-c4ccccc4-6)cc3)c(-c3ccc(-c4cc(-c5ccccn5)[c]5cc4-c4ccccc4-c4cc6cc(c4)-c4ccccc4-c4ccc(-c7ccccn7)[c](c4)[Ir]5[c]4cc(ccc4-c4ccccn4)-c4ccccc4-6)cc3)c2-c2ccccc2)cc1 [Ir(534)] | 0.31 and 0.32 | 0.66 and 0.63 | 22.0% and 22.7% | 340000 | 5.1 V and 4.9 V
CC(C)(C)c1ccc(-c2c(-c3ccc(-c4cc[c]5c(c4)-c4ccc(cn4)-c4ccccc4-c4cc6cc(c4)-c4ccccc4-c4ccc(nc4)-c4cc(-c7ccc(-c8c(-c9ccc(C(C)(C)C)cc9)c(-c9ccccc9)c9c%10ccccc%10c%10ccccc%10c9c8-c8ccccc8)cc7)cc[c]4[Ir]5[c]4ccccc4-c4ccc(cn4)-c4ccccc4-6)cc3)c(-c3ccccc3)c3c4ccccc4c4ccccc4c3c2-c2ccccc2)cc1 [Ir(531)] | 0.33 | 0.62 | 20.7% | 270000 | 5.1 V
c1ccc(-c2ccc(N(c3ccc(-c4ccccc4)cc3)c3ccc(-c4c(-c5ccccc5)c(-c5ccccc5)c(-c5ccccc5)c(-c5ccccc5)c4-c4cc[c]5c(c4)-c4ccc(cn4)-c4ccccc4-c4cc6cc(c4)-c4ccccc4-c4ccc(nc4)-c4cccc[c]4[Ir]5[c]4ccccc4-c4ccc(cn4)-c4ccccc4-6)cc3)cc2)cc1 [Ir(517)] | 0.35 | 0.62 | 21.7% | 330000 | 4.7 V
Cc1ccc(-c2cc(-c3ccc(-c4c(-c5ccc(-c6cc(-c7ccc(C)cc7)c(-c7ccc(C)cc7)c(-c7ccc(C)cc7)c6-c6ccc(C)cc6)cc5)c(-c5ccc(C)cc5)c(-c5cc(-c6cc(-c7ccccn7)[c]7cc6-c6ccccc6-c6cc8cc(c6)-c6ccccc6-c6ccc(-c9ccccn9)[c](c6)[Ir]7[c]6cc(ccc6-c6ccccn6)-c6ccccc6-8)cc(-c6c(-c7ccc(C)cc7)c(-c7ccc(-c8cc(-c9ccc(C)cc9)c(-c9ccc(C)cc9)c(-c9ccc(C)cc9)c8-c8ccc(C)cc8)cc7)c(-c7ccc(-c8cc(-c9ccc(C)cc9)c(-c9ccc(C)cc9)c(-c9ccc(C)cc9)c8-c8ccc(C)cc8)cc7)c(-c7ccc(C)cc7)c6-c6ccc(C(C)(C)C)cc6)c5)c(-c5ccc(C(C)(C)C)cc5)c4-c4ccc(C)cc4)cc3)c(-c3ccc(C)cc3)c(-c3ccc(C)cc3)c2-c2ccc(C)cc2)cc1 [Ir(533)] | 0.32 | 0.63 | 21.9% | 320000 | 4.8 V
c1ccc(-c2c(-c3ccccc3)c(-c3ccccc3)c(-c3cc[c]4c(c3)-c3ccc(cn3)-c3ccccc3-c3cc5cc(c3)-c3ccccc3-c3ccc(nc3)-c3cc(-c6c(-c7ccccc7)c(-c7ccccc7)c(-c7ccccc7)c(-c7ccccc7)c6-c6ccccc6)cc[c]3[Ir]4[c]3ccc(-c4c(-c6ccccc6)c(-c6ccccc6)c(-c6ccccc6)c(-c6ccccc6)c4-c4ccccc4)cc3-c3ccc(cn3)-c3ccccc3-5)c(-c3ccccc3)c2-c2ccccc2)cc1 [Ir(515)] | 0.34 | 0.61 | 21.9% | 290000 | 4.9 V
c1ccc(-c2c(-c3ccccc3)c(-c3ccccc3)c(-c3cc[c]([Ir]([c]4ccc(-c5c(-c6ccccc6)c(-c6ccccc6)c(-c6ccccc6)c(-c6ccccc6)c5-c5ccccc5)cc4-c4ccccn4)[c]4ccc(-c5c(-c6ccccc6)c(-c6ccccc6)c(-c6ccccc6)c(-c6ccccc6)c5-c5ccccc5)cc4-c4ccccn4)c(-c4ccccn4)c3)c(-c3ccccc3)c2-c2ccccc2)cc1 [Ir(500)] | 0.32 | 0.62 | 19.6% | 290000 | 5.0 V
c1ccc(-c2ccccc2-c2cc(-c3ccccn3)[c]3cc2-c2ccccc2-c2cc4cc(c2)-c2ccccc2-c2c[c](c(-c5ccccn5)cc2-c2ccccc2-c2ccccc2)[Ir]3[c]2cc(c(-c3ccccc3-c3ccccc3)cc2-c2ccccn2)-c2ccccc2-4)cc1 [IrRef2, reference compound] | 0.33 | 0.62 | 20.6% | 250000 | 5.2 V
c1ccc(-c2c(-c3ccccc3)c(-c3ccccc3)c(-c3ccc4c5ccccc5c5ccccc5c4c3)c(-c3cc[c]4c(c3)-c3ccc(cn3)-c3ccccc3-c3cc5cc(c3)-c3ccccc3-c3ccc(nc3)-c3cc(-c6c(-c7ccccc7)c(-c7ccccc7)c(-c7ccccc7)c(-c7ccccc7)c6-c6ccc7c8ccccc8c8ccccc8c7c6)cc[c]3[Ir]4[c]3ccccc3-c3ccc(cn3)-c3ccccc3-5)c2-c2ccccc2)cc1 [Ir(516)] | 0.34 | 0.61 | 22.3% | 310000 | 5.0 V
c1ccc(-c2cc(-c3ccccc3)cc(-c3c(-c4ccccc4)c(-c4ccccc4)c(-c4cc(-c5ccccc5)cc(-c5ccccc5)c4)c(-c4ccc(-c5cc(-c6ccccn6)[c]6cc5-c5ccccc5-c5cc7cc(c5)-c5ccccc5-c5c[c](c(-c8ccccn8)cc5-c5ccc(-c8c(-c9ccccc9)c(-c9cc(-c%10ccccc%10)cc(-c%10ccccc%10)c9)c(-c9ccccc9)c(-c9ccccc9)c8-c8cc(-c9ccccc9)cc(-c9ccccc9)c8)cc5)[Ir]6[c]5cc(ccc5-c5ccccn5)-c5ccccc5-7)cc4)c3-c3ccccc3)c2)cc1 [Ir(532)] | 0.33 | 0.62 | 22.1% | 290000 | 5.0 V
c1ccc(-c2c(-c3ccccc3)c(-c3ccccc3)c(-c3ccc(-c4cc(-c5ccccn5)[c]5cc4-c4ccccc4-c4cc6cc(c4)-c4ccccc4-c4c[c](c(-c7ccccn7)cc4-c4ccc(-c7c(-c8ccccc8)c(-c8ccccc8)c(-c8ccccc8)c(-c8ccccc8)c7-c7ccccc7)cc4)[Ir]5[c]4cc(c(-c5ccc(-c7c(-c8ccccc8)c(-c8ccccc8)c(-c8ccccc8)c(-c8ccccc8)c7-c7ccccc7)cc5)cc4-c4ccccn4)-c4ccccc4-6)cc3)c(-c3ccccc3)c2-c2ccccc2)cc1 [Ir(530)] | 0.30 | 0.65 | 22.3% | 360000 | 5.2 V

Where “and” joins values, the source holds several entries; their conditions need not be identical. Equal entries are not always repeated.
